We go through 2 sequences from US20170362606.

Construct, isoform or probe ends are uncertain for at least one entry. Tags and fusion partners may be left off the protein sequences shown.

The data set addresses T1, Int-h/218 (Lambda phage) (UniProt P03700).
T1 sequence: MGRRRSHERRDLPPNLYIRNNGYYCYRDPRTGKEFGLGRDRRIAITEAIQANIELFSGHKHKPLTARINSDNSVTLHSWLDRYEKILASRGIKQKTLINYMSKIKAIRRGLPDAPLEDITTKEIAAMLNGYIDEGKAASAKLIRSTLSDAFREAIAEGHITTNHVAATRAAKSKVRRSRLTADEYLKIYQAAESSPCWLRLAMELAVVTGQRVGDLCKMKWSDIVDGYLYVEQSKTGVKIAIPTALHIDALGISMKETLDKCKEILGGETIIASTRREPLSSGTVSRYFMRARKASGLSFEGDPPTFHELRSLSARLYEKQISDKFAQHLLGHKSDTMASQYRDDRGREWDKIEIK
The data set is described as follows: enzyme reaction in vitro. The note with it: in vitro intramolecular attH4X x attP4X recombination on supercoiled plasmid; scIHF, 200 mM KCl, TE, 37 C 2 h; purified recombinant protein.

As to “CTTTATTTCATTAAGTTG (double strand) [attH4X]”, the “activity on this sequence” value is “active”.
The same measure for “TCTGTTACAGGTCACTAATACCATCTAAGTAGTTGATTCATAGTGACTGCATATGTTGTGTTTTACAGTATTATGTAGTCTGTTTTTTATGCAAAATCTAATTTAATATATTGATATTTATATCATTTTACGTTTCTCGTTCAGCTTTATTTCATTAAGTTGGCATTATAAAAAAGCATTGCTTATCAATTTGTTGCAACGAACAGGTCACTATCAGTCAAAATACAATCATTATTTGATTTC (double strand) [attP4X]”: “active”.
